Some of the results follow.
compound: FC(F)(F)c1ccc(/C=C/c2nc(COc3ccc(CCCCn4ccnn4)cc3)co2)cc1 [mubritinib]; assay: log2 fold change, soluble protein after heating vs DMSO (PISA); higher = thermal stabilisation; K562 cells, 10 uM, 30 min; active = over 0.2 and 3.5 SD of the protein, either way, in both replicates (recomputed)
Summary of the method: (§1)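 Soluble protein was defined as the supernatant after 21,000xg for 90 min. It came from K562 cells at 2×10^6 cells/mL given 10 μM compound for 30 min, heated in aliquots for 3 min across 48°C-58°C, pooled, and extracted in PBS with 0.5% NP-40 at 4°C, and was quantified by TMTpro 16plex LC-MS/MS with equalised channel sums. Thermal stability against control samples, from duplicates, is reported as log2 fold change.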

Sequences of proteins named here, by UniProt entry; tags and fusion partners are left off. A change or cut given only in a name is not applied to a line headed by its entry.
UniProt Q9UK73, whole entry, looked up: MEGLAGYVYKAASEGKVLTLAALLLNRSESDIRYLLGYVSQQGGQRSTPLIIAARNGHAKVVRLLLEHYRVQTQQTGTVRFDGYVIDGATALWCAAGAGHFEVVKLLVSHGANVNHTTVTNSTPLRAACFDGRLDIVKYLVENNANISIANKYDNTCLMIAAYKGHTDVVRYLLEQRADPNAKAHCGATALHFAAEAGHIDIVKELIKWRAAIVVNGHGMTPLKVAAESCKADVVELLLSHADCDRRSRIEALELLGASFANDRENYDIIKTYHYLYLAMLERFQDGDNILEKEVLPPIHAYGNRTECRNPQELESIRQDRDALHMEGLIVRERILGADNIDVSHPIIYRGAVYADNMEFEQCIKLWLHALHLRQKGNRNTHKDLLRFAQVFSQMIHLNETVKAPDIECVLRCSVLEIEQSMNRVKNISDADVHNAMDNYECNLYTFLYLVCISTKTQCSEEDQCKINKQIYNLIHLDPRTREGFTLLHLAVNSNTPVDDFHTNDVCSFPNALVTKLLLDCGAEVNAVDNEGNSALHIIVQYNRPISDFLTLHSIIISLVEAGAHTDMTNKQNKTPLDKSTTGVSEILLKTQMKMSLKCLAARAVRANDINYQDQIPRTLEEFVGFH
UniProt Q9Y680: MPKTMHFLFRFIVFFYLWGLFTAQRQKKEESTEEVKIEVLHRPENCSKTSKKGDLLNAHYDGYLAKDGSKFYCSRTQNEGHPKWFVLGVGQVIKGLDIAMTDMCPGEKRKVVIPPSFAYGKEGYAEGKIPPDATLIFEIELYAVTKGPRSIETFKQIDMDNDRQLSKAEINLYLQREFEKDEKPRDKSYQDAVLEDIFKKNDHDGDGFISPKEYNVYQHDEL
UniProt Q5HYJ3: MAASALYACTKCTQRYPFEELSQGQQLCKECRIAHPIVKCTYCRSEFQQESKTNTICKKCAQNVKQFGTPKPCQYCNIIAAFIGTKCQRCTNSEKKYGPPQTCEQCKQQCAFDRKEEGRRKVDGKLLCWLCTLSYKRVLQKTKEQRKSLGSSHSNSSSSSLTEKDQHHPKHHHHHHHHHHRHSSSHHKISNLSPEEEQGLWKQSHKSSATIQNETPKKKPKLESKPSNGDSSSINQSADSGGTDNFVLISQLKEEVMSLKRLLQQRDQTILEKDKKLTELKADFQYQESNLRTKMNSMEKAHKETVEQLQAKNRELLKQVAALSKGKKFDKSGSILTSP
UniProt Q658Y4: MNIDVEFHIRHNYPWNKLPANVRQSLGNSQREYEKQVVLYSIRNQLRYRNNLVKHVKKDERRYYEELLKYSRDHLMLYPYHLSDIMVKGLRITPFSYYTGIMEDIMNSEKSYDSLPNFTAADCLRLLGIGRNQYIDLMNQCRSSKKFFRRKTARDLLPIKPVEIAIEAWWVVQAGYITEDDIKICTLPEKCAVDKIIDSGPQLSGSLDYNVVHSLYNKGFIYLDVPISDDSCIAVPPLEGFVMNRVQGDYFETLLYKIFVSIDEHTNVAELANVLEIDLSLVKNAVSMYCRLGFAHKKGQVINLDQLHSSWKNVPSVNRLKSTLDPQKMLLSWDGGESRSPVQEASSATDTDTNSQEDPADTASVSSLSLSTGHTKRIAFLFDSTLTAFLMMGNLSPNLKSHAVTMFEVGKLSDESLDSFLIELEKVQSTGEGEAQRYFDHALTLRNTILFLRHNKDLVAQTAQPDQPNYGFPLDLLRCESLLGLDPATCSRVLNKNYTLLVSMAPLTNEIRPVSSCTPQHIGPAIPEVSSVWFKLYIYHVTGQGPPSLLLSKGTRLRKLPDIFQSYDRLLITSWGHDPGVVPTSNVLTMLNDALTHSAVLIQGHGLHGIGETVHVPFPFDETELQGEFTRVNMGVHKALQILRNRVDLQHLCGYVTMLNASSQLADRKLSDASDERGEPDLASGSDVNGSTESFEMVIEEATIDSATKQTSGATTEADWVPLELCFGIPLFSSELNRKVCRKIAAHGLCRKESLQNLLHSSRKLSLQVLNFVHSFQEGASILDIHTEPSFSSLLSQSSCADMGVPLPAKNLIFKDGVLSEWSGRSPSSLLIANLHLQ
UniProt Q00688: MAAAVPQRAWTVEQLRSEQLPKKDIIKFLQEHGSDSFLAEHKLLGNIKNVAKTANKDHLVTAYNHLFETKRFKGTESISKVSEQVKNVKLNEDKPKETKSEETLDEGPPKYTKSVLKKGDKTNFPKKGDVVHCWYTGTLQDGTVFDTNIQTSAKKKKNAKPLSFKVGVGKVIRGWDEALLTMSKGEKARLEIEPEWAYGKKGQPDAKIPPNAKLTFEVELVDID
UniProt Q9Y3I1: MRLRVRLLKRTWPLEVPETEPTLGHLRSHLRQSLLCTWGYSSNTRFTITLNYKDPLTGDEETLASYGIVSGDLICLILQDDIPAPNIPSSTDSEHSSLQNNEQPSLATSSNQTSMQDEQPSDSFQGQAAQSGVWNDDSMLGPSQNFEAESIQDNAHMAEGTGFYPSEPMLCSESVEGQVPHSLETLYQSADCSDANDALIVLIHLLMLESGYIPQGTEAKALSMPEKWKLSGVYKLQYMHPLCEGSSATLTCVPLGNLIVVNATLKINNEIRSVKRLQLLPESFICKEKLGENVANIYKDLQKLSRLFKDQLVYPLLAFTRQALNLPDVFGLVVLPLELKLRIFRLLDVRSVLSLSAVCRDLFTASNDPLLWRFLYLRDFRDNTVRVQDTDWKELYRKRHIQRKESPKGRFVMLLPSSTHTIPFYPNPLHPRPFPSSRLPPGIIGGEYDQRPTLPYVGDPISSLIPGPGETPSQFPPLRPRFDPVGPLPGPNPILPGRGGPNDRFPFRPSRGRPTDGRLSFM
UniProt Q8TB52: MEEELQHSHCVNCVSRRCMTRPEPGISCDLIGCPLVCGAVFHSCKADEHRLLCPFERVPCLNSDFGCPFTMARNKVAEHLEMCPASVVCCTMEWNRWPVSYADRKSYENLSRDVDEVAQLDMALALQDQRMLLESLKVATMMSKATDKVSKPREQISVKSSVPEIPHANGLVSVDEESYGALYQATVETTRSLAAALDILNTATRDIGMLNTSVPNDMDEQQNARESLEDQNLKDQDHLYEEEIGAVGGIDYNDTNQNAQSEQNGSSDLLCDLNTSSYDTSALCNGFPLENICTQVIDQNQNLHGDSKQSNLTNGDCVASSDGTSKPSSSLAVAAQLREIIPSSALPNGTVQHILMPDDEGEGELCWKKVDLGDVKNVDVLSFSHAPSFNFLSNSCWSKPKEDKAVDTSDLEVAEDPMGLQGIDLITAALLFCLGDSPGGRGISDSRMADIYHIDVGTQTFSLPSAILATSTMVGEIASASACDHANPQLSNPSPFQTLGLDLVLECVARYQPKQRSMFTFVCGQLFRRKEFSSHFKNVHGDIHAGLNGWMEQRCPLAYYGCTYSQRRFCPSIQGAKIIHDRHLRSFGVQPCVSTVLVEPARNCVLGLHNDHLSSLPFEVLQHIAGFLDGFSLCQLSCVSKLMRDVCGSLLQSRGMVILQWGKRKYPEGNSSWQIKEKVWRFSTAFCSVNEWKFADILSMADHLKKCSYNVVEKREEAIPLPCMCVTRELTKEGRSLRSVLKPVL
UniProt Q14192: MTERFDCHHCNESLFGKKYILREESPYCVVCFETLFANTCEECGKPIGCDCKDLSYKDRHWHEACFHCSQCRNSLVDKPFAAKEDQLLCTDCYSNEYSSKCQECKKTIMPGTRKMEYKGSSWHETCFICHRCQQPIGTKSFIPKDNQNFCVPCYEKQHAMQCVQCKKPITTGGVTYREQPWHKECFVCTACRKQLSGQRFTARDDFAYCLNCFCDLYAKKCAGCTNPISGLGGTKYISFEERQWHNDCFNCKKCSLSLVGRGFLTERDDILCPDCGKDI
UniProt P22830: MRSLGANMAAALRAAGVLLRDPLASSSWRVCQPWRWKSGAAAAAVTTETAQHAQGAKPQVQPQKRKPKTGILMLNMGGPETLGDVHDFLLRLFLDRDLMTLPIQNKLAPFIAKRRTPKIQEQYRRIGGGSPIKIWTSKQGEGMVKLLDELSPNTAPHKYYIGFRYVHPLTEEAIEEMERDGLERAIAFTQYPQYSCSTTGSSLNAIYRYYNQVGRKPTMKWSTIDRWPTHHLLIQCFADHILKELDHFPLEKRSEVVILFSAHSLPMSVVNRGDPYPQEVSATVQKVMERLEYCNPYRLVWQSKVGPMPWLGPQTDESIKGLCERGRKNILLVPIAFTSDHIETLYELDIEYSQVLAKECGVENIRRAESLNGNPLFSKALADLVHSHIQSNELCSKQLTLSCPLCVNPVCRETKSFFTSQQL
UniProt Q14320: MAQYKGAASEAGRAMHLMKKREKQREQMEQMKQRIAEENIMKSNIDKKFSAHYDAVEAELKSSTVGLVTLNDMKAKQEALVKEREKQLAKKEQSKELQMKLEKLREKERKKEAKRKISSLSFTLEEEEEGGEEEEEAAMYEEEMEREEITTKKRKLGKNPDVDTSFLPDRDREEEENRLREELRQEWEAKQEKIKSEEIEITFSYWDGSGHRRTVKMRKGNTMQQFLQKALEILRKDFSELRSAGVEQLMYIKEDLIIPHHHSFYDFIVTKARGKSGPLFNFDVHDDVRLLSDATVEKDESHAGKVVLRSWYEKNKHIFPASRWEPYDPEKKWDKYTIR
UniProt A6NHQ2: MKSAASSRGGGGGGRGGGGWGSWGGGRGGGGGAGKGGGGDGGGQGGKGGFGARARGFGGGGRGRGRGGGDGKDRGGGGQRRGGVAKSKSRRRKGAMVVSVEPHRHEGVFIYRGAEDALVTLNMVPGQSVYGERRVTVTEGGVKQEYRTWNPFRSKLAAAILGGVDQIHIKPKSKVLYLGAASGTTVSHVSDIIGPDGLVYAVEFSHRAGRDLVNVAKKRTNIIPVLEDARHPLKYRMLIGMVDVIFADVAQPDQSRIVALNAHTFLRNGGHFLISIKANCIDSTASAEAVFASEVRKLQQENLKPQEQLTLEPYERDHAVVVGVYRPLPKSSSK
UniProt Q8N3X1: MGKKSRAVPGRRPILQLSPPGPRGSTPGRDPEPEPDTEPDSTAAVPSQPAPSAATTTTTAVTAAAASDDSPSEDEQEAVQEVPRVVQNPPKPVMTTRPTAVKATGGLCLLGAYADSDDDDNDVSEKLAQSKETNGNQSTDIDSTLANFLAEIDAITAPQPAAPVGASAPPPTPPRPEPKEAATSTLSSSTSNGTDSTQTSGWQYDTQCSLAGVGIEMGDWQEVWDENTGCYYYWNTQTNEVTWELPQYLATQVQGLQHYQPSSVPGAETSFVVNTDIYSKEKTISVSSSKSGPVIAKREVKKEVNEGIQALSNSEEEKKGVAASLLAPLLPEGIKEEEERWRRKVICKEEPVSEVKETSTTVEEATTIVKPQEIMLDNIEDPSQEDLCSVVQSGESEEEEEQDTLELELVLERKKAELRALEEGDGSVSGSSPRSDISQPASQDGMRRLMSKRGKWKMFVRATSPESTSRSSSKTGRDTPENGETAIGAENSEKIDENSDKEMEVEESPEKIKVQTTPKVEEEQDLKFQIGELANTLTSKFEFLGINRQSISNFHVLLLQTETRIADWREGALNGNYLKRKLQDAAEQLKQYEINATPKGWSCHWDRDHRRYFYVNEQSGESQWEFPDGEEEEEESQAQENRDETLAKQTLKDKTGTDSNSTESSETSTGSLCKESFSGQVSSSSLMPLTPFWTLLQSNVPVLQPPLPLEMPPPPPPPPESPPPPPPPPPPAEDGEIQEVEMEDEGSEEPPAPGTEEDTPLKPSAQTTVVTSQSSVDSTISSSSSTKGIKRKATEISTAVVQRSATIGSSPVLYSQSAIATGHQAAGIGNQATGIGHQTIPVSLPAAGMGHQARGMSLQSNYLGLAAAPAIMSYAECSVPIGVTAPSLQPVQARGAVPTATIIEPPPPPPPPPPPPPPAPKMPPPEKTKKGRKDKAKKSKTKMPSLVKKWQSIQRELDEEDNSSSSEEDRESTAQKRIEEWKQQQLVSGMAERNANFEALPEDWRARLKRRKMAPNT
UniProt Q9NSD9: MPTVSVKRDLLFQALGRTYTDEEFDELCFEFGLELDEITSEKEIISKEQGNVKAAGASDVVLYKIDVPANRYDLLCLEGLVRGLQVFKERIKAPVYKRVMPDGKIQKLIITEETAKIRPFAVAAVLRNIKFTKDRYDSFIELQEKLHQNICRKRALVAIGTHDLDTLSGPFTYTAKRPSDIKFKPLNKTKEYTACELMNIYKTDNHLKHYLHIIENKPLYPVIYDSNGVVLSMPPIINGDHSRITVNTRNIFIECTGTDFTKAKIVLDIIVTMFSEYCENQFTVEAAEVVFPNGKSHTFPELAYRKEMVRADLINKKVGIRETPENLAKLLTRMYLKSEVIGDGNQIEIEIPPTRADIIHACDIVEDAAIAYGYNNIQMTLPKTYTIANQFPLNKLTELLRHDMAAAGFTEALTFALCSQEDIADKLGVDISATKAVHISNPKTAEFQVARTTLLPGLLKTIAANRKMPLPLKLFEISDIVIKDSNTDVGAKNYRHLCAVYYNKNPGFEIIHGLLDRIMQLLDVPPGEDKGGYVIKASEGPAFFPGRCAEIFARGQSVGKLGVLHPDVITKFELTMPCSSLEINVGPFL

| Target | log2 fold change |
| --- | --- |
| FBXO5 (UniProt Q9UKT4) | inactive: -0.006 |
| FEM1B (UniProt Q9UK73) | inactive: 0.101 |
| FKBP7 (UniProt Q9Y680) | inactive: 0.031 |
| FAM76B (UniProt Q5HYJ3) | inactive: -0.136 |
| FIP1L1 (UniProt Q6UN15) | inactive: 0 |
| FBXO22 (UniProt Q8NEZ5) | inactive: 0.132 |
| FAM91A1 (UniProt Q658Y4) | inactive: 0.052 |
| FKBP15 (UniProt Q5T1M5) | inactive: 0.046 |
| FKBP3 (UniProt Q00688) | inactive: 0.017 |
| FBXO7 (UniProt Q9Y3I1) | inactive: 0.07 |
| FDX2 (UniProt Q6P4F2) | inactive: 0.02 |
| FDFT1 (UniProt P37268) | inactive: 0.022 |
| FBXL20 (UniProt Q96IG2) | inactive: 0.073 |
| FKBPL (UniProt Q9UIM3) | inactive: 0.009 |
| FARS2 (UniProt O95363) | inactive: -0.168 |
| FBXO30 (UniProt Q8TB52) | inactive: -0.004 |
| FHL2 (UniProt Q14192) | inactive: 0.009 |
| FECH isoform 2 (UniProt P22830) | inactive: 0.034 |
| FAM50A (UniProt Q14320) | inactive: 0.083 |
| FBL (UniProt P22087) | inactive: -0.241 |

| Target | log2 fold change |
| --- | --- |
| FBLL1 (UniProt A6NHQ2) | inactive: -0.153 |
| FBXO3 (UniProt Q9UK99) | inactive: 0.055 |
| FN3KRP (UniProt Q9HA64) | inactive: 0.01 |
| FLVCR1 (UniProt Q9Y5Y0) | inactive: -0.084 |
| FAM8A1 (UniProt Q9UBU6) | inactive: 0.075 |
| FGFR1OP (UniProt O95684) | inactive: -0.009 |
| FKBP14 (UniProt Q9NWM8) | inactive: -0.055 |
| FGF13 isoform 3 (UniProt Q92913) | inactive: 0.026 |
| FBXO6 (UniProt Q9NRD1) | inactive: -0.038 |
| FKBP2 (UniProt P26885) | inactive: -0.014 |
| FAM32A (UniProt Q9Y421) | inactive: -0.049 |
| FDPS (UniProt P14324) | inactive: 0.39 |
| FNBP4 isoform 2 (UniProt Q8N3X1) | inactive: -0.007 |
| FAM98B (UniProt Q52LJ0) | inactive: -0.091 |
| FARSB (UniProt Q9NSD9) | inactive: 0.001 |
| FAM98A (UniProt Q8NCA5) | inactive: -0.081 |
| FAU (UniProt P62861) | inactive: -0.131 |
| FIS1 (UniProt Q9Y3D6) | inactive: 0.053 |
| FAM3C (UniProt Q92520) | inactive: 0.027 |

compound: NC(=O)Nc1cc(-c2cccc(F)c2)sc1C(=O)N[C@H]1CCCNC1; assay: as above
Summary of the method: as §1

| Target | log2 fold change |
| --- | --- |
| FBXO5 (UniProt Q9UKT4) | inactive: -0.046 |
| FEM1B (UniProt Q9UK73) | inactive: -0.052 |
| FKBP7 (UniProt Q9Y680) | inactive: -0.034 |
| FAM76B (UniProt Q5HYJ3) | inactive: 0.004 |
| FIP1L1 (UniProt Q6UN15) | inactive: 0.026 |
| FBXO22 (UniProt Q8NEZ5) | inactive: 0.04 |
| FAM91A1 (UniProt Q658Y4) | inactive: -0.009 |
| FKBP15 (UniProt Q5T1M5) | inactive: 0.01 |
| FKBP3 (UniProt Q00688) | inactive: 0.042 |
| FBXO7 (UniProt Q9Y3I1) | inactive: 0.061 |
| FDX2 (UniProt Q6P4F2) | inactive: 0.033 |
| FDFT1 (UniProt P37268) | inactive: 0.044 |
| FBXL20 (UniProt Q96IG2) | inactive: -0.052 |
| FKBPL (UniProt Q9UIM3) | inactive: -0.008 |
| FARS2 (UniProt O95363) | inactive: -0.006 |
| FBXO30 (UniProt Q8TB52) | inactive: -0.035 |
| FHL2 (UniProt Q14192) | inactive: -0.007 |
| FECH isoform 2 (UniProt P22830) | inactive: -0.031 |
| FAM50A (UniProt Q14320) | inactive: 0.003 |
| FBL (UniProt P22087) | inactive: 0.095 |

| Target | log2 fold change |
| --- | --- |
| FBLL1 (UniProt A6NHQ2) | inactive: 0.122 |
| FBXO3 (UniProt Q9UK99) | inactive: -0.034 |
| FN3KRP (UniProt Q9HA64) | inactive: 0.049 |
| FLVCR1 (UniProt Q9Y5Y0) | inactive: -0.119 |
| FAM8A1 (UniProt Q9UBU6) | inactive: 0.006 |
| FGFR1OP (UniProt O95684) | inactive: 0.088 |
| FKBP14 (UniProt Q9NWM8) | inactive: 0.043 |
| FGF13 isoform 3 (UniProt Q92913) | inactive: 0.015 |
| FBXO6 (UniProt Q9NRD1) | inactive: -0.009 |
| FKBP2 (UniProt P26885) | inactive: -0.034 |
| FAM32A (UniProt Q9Y421) | inactive: -0.004 |
| FDPS (UniProt P14324) | inactive: 0.009 |
| FNBP4 isoform 2 (UniProt Q8N3X1) | inactive: 0.025 |
| FAM98B (UniProt Q52LJ0) | inactive: 0.127 |
| FARSB (UniProt Q9NSD9) | inactive: -0.017 |
| FAM98A (UniProt Q8NCA5) | inactive: 0.107 |
| FAU (UniProt P62861) | inactive: 0.069 |
| FIS1 (UniProt Q9Y3D6) | inactive: -0.013 |
| FAM3C (UniProt Q92520) | inactive: 0.015 |
